The target of experiment [1] is T1, αvβ6 integrin (R&D Systems), immobilized (UniProt P06756 31-992; P18564 22-707).
T1 construct: Bought protein captured on the plate by the anti-αv antibody P2W7; also called immobilized αvβ6 integrin
The experiment in a line: competitive binding ELISA, summary.

The chains behind the UniProt entries cited, without tags or fusion partners. Where a name states a change or a piece, a line headed by the entry shows the natural chain unless it says otherwise.
UniProt P06756: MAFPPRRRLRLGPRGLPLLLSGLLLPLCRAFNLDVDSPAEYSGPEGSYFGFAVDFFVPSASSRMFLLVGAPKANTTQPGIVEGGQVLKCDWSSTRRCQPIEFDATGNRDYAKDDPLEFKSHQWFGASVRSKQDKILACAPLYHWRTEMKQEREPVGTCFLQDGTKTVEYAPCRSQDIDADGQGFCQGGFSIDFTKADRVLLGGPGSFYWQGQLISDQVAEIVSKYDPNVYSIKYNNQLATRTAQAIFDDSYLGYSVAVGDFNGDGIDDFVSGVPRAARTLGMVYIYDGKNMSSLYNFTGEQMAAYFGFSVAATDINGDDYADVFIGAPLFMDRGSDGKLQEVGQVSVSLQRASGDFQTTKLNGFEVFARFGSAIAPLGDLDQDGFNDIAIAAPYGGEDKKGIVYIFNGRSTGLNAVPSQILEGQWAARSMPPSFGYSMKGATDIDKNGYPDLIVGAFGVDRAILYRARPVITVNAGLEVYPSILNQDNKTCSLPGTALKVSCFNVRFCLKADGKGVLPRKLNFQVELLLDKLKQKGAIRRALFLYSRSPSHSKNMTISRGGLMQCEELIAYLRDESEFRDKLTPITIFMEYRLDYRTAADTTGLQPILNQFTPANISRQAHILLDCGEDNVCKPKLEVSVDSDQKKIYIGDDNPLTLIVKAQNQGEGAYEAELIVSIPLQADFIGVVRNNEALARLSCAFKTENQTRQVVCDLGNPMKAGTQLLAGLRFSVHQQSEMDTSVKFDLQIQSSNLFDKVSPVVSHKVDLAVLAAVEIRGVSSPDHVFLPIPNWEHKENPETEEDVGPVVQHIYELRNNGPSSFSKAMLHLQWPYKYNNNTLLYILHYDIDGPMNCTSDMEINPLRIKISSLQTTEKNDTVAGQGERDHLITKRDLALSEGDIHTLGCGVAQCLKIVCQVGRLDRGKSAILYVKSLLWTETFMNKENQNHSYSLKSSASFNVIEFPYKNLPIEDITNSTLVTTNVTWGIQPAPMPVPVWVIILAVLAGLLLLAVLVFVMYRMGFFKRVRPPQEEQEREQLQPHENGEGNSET
UniProt P18564: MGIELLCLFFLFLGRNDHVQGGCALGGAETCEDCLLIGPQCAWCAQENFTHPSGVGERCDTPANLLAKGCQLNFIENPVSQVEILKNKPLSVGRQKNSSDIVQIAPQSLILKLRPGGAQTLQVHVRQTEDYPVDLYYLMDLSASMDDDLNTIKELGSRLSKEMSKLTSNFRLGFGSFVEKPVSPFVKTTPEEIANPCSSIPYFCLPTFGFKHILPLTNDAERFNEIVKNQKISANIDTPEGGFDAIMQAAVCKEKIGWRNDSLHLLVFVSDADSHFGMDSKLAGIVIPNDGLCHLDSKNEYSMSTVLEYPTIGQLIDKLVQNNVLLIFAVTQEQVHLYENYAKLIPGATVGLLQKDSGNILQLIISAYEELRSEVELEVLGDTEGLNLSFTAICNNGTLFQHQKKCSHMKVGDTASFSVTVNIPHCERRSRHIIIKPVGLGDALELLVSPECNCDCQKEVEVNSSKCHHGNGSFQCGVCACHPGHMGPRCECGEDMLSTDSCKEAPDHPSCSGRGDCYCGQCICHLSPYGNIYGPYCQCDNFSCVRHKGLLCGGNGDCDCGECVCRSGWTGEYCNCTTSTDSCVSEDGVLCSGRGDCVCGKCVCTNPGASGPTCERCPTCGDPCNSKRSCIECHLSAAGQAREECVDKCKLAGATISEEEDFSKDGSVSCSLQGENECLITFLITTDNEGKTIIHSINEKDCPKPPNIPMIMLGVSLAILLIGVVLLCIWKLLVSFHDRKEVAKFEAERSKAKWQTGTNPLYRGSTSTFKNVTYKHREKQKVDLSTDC

The target of experiment [2] is T2, αvβ6 integrin on DX3Puroβ6 cells (human) (UniProt P06756+P18564). The experiment in a line: flow cytometry on DX3Puroβ6 and DX3Puro cells. For orientation: In flow cytometry, cells or beads pass a laser one at a time.
For experiment [3], the target named is T2, αvβ6 integrin on DX3Puroβ6 cells (human). The experiment in a line: flow cytometry, summary.
For experiment [4] the target is unchanged. Nature of the experiment: flow cytometry, FIGS. 11C and 11D.

These are yes or no findings as the source states them, for the method shown. Some binding calls cover weakened binding; strength is not graded here.

B1: anti-αvβ6 Cys-diabody (other)
scFv: EVQLVESGGGLVQPGGSLRLSCAASGFTFSRYVMSWVRQAPGKGLEWVASISSGGRMYYPDTVKGRFTISRDNAKNSLYLQMNSLRAEDTAVYYCARGSIYDGYYVFPYWGQGTLVTVSSGGSEIVLTQSPATLSLSPGERATLSCSASSSVSSSYLYWYQQKPGQAPRLLIYSTSNLASGIPARFSGSGSGTDFTLTISSLEPEDFAVYYCHQWSTYPPTFGGGTKVEIKHHHHHHGGC
modifications: C-terminal engineered cysteines of the two chains form an interchain disulfide
notes: Covalent dimer; also called disulfide-stabilized anti-αvβ6 Cys-diabody; B6DiaR-G2S-Cys
Regarding B1, the binding entry in experiment [1], in experiment [2], in experiment [3] and in experiment [4] was “binds” each time.

B2: anti-αvβ6 diabody (other)
scFv: EVQLVESGGGLVQPGGSLRLSCAASGFTFSRYVMSWVRQAPGKGLEWVASISSGGRMYYPDTVKGRFTISRDNAKNSLYLQMNSLRAEDTAVYYCARGSIYDGYYVFPYWGQGTLVTVSSGGSEIVLTQSPATLSLSPGERATLSCSASSSVSSSYLYWYQQKPGQAPRLLIYSTSNLASGIPARFSGSGSGTDFTLTISSLEPEDFAVYYCHQWSTYPPTFGGGTKVEIKHHHHHH
notes: Non-covalent dimer of two VH-G2S-VL-His6 chains (diabody), secreted from 293-F cells; also called B6DiaR-G2S; parental anti-αvβ6 diabody
For B2, the binding result in experiment [1] is on record as “binds”.

The record behind these values is patent US20160368993A1 (University of California, published 2016).
